Laboratory results: PubChem BioAssay AID1224826 (NIAID, 2016)

Assay: 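Knock-downs that raise or lower Tnf reporter signal after endotoxin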 (primary screen)
System: RAW264.7 G9 macrophages from mouse bearing reporters for p65 (GFP) and the Tnf promoter (mCherry)
Knock-down reagent: siRNA pool against mouse genes, 100 nM
Duration: 16 h of LPS stimulation, after 2 days of siRNA transfection
Challenge: bacterial lipopolysaccharide (Salmonella minnesota R595), 10 ng/ml
Detection: 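Nuclear mCherry signal of the Tnf promoter reporter measured by imaging after background removal, scaled to each plate median and turned into robust z-scores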
Scale: Tnf reporter robust z-score: higher = stronger Tnf promoter reporter signal after LPS; Tnf reporter intensity: higher = stronger Tnf promoter reporter signal
Rule for the call: 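Called active when robust z-score is at most -1.3, matching the median of the Tlr4 knock-down control, or over 3; control wells and wells with under 50 cells never active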
Meaning of the calls: active = Tnf reporter clearly lowered or raised; inactive = no clear change in Tnf reporter
Here is one part, drawn at random, of about 17,000 reagents. In the full data, about 1,110 (6.6%) were called active. 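Active means lowered or raised reporter signal; replicate intensities are raw and not normalised per plate.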

no.	gene	Tnf reporter robust z-score	fewer than 50 cells in well	Tnf reporter intensity, replicate 1	Tnf reporter intensity, replicate 2	call
1	Rgs7bp	-1.1	enough cells in well	135	90.9	inactive
2	Sun3		fewer than 50 cells per well; well left out of calls	22.5	24.6	inactive
3	Fn3k	1.08	enough cells in well	265	217	inactive
4	Apoc1	-0.26	enough cells in well	159	149	inactive
5	Tbce	0.35	enough cells in well	280	138	inactive
6	Arhgap45	-0.68	enough cells in well	112	133	inactive
7	Zfp932		fewer than 50 cells per well; well left out of calls	137	85.4	inactive
8	Vmn1r183		fewer than 50 cells per well; well left out of calls	66	39.6	inactive
9	Hopx	-1.09	enough cells in well	166	96.6	inactive
10	Cables1		fewer than 50 cells per well; well left out of calls	112	127	inactive
11	Defb19	0.03	enough cells in well	195	159	inactive
12	B3gat2	1.35	enough cells in well	264	224	inactive
13	Gid4	0.58	enough cells in well	221	166	inactive
14	Erlin1	0.23	enough cells in well	220	133	inactive
15	Prkacb	0.53	enough cells in well	225	101	inactive
16	Zfp365	0.13	enough cells in well	116	146	inactive
17	Tmem150cos	0.16	enough cells in well	176	164	inactive
18	Hebp1	-0.61	enough cells in well	206	122	inactive
19	Slc6a1	0.54	enough cells in well	119	90.9	inactive
20	Slc6a14		fewer than 50 cells per well; well left out of calls	93.6	68.9	inactive
21	Slc30a9		fewer than 50 cells per well; well left out of calls	38.4	60.2	inactive
22	Syp	0.93	enough cells in well	179	102	inactive
23	Gal	-1.32	enough cells in well	135	84.8	active
24	Sptssb	0.6	enough cells in well	284	102	inactive
25	Trem3	1.18	enough cells in well	160	134	inactive
26	Cep20	0.4	enough cells in well	318	79.2	inactive
27	Stx6	1.44	enough cells in well	176	123	inactive
28	Oma1		fewer than 50 cells per well; well left out of calls	89.4	25.3	inactive
29	Plpp7	1.39	enough cells in well	292	225	inactive
30	Ikbkb	-1.11	enough cells in well	123	99	inactive
31	Smad3	1.11	enough cells in well	360	315	inactive
32	Btg1	2.17	enough cells in well	243	290	inactive
33	Tmem41a	2.75	enough cells in well	319	303	inactive
34	Abhd6		fewer than 50 cells per well; well left out of calls	178	133	inactive
35	Ripor2	-0.69	enough cells in well	156	93.4	inactive
36	Gria2	-0.47	enough cells in well	212	201	inactive
37	Ifrd1	0.2	enough cells in well	270	186	inactive
38	Fip1l1	-0.12	enough cells in well	187	165	inactive
39	Psma4		fewer than 50 cells per well; well left out of calls	403	342	inactive
40	Ceacam10	0.55	enough cells in well	180	175	inactive
41	Irak2	0.56	enough cells in well	150	269	inactive
42	Obox1	1.2	enough cells in well	253	220	inactive
43	C1ra	2.19	enough cells in well	263	266	inactive
44	Nhlrc3	-0.1	enough cells in well	165	191	inactive
45	Or4p19	-0.66	enough cells in well	144	118	inactive
46	Pi4k2b	-0.84	enough cells in well	116	138	inactive
47	Commd7	0.94	enough cells in well	258	217	inactive
48	Cnksr3	0.02	enough cells in well	236	110	inactive
49	Wdr45	1.89	enough cells in well	186	224	inactive
50	Scg5	0.54	enough cells in well	311	271	inactive
51	Myg1	-1.33	enough cells in well	136	52.1	active
52	Tst	-0.69	enough cells in well	171	182	inactive
53	Or10a48	2.36	enough cells in well	195	188	inactive
54	Fcgr4	-0.95	enough cells in well	141	174	inactive
55	Pigf	-0.01	enough cells in well	132	146	inactive
56	Atp8b5	2.24	enough cells in well	358	98.5	inactive
57	Or4b12	2.02	enough cells in well	347	173	inactive
58	Ptpn22	0.52	enough cells in well	210	294	inactive
59	Als2cl	0.35	enough cells in well	226	237	inactive
60	Ctdspl	0.05	enough cells in well	204	163	inactive
61	Cks2	0.83	enough cells in well	242	209	inactive
62	Ces1e	-1.58	enough cells in well	139	48.5	active
63	Klk4	1.08	enough cells in well	274	171	inactive
64	Adcy3	0.46	enough cells in well	252	203	inactive
65	Ier2	3.26	enough cells in well	416	267	active
66	Art1	1.32	enough cells in well	241	248	inactive
67	Art3	-0.94	enough cells in well	144	82.6	inactive
68	Krabd3	2	enough cells in well	403	130	inactive
69	Slc52a2	-0.16	enough cells in well	186	309	inactive
70	Rasip1	0.18	enough cells in well	134	141	inactive
71	Or12k7	-0.53	enough cells in well	168	85.5	inactive
72	Rai1	0.39	enough cells in well	379	211	inactive
73	Snx3	1.97	enough cells in well	201	134	inactive
74	Teddm2	-0.22	enough cells in well	200	165	inactive
75	Spata33	0.71	enough cells in well	213	74.7	inactive

Not a retest: 12 of the entries above.
no.	gene	Tnf reporter robust z-score	fewer than 50 cells in well	Tnf reporter intensity, replicate 1	Tnf reporter intensity, replicate 2	call
48	Cnksr3	0.02	enough cells in well	236	110	inactive
49	Wdr45	1.89	enough cells in well	186	224	inactive
50	Scg5	0.54	enough cells in well	311	271	inactive
51	Myg1	-1.33	enough cells in well	136	52.1	active
52	Tst	-0.69	enough cells in well	171	182	inactive
53	Or10a48	2.36	enough cells in well	195	188	inactive
54	Fcgr4	-0.95	enough cells in well	141	174	inactive
55	Pigf	-0.01	enough cells in well	132	146	inactive
56	Atp8b5	2.24	enough cells in well	358	98.5	inactive
57	Or4b12	2.02	enough cells in well	347	173	inactive
58	Ptpn22	0.52	enough cells in well	210	294	inactive
59	Als2cl	0.35	enough cells in well	226	237	inactive
